From US20230365681A1 (CELGENE, published 2023)
Results are given in words; binding and its absence hold for the method and conditions named. Some results given as binding are weak or reduced against the parent protein; the word gives no strength.

Molecular target: cynomolgus CD47 on red blood cells (cynomolgus monkey)
Experiment: isolated cynomolgus RBCs, reference of the assay

binding: binds
B1: TPP-23 (408_437 Fab with IgG1) (antibody, V domains shown)
VH: QMQLVQSGAEVKKPGSSVKVSCKASGFNIKDYYLHWVRQAPGKGLEWMGWIDPDQGDTEYAQKFQGRVTITRDRSTSTAYMELRSLRAEDTAVYYCNAAYGSSSYPMDYWGQGTLVTVSS
VL: NIQMTQSPSSLSASVGDRVTITCRASQDIHRYLSWFQQKPGKVPKHLIYRANRLVSGVPSRFSGSGSGTEFTLTISSLQPEDFATYYCLQYDEFPYTFGGGTKVEIK
notes: The crystal structure was made with an anti-CD47 Fab of this antibody; also called parental CD47 mAb
